# Source: the supplement of paper PMC6411743
# ± gives the standard deviation of the averaged measurements. The entries are a selection whose mix differs from that of the whole data set.
# Key:
# Assay in all cases: NP40-soluble protein abundance relative to vehicle (solubility fold change) (ratio); higher = more soluble protein in presence of ATP
# STRBP = target: T1, STRBP (UniProt Q96SI9)
# T1 sequence (whole entry): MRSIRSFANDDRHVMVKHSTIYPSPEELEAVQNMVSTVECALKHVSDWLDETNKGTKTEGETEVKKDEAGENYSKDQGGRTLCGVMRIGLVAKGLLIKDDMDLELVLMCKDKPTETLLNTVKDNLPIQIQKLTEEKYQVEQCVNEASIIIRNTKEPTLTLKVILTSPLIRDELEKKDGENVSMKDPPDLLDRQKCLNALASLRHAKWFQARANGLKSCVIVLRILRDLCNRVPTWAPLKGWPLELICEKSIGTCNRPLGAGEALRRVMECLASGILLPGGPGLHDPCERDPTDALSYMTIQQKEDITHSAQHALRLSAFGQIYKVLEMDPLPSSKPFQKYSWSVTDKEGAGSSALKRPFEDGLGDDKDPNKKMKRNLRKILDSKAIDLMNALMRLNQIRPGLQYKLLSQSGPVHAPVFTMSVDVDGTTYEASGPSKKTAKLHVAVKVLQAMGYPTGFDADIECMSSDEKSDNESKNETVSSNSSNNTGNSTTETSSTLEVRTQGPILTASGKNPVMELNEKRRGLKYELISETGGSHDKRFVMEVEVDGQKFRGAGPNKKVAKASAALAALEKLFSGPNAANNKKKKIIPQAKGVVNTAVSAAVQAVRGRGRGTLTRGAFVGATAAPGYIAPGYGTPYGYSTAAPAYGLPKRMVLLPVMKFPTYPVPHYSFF
# Summary of the method: (§1)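 Jurkat crude lysate prepared with a Dounce homogeniser was treated at eight concentrations spanning 0.1 to 10 mM, 10 min at room temperature then 3 min at 37 °C. Solubilisation with 0.8% NP40 and benzonase and ultracentrifugation preceded TMT labelling of the supernatant for LC-MS/MS. Fold change against the detergent-processed vehicle was determined per replicate from vsn-normalised intensities, across three independent experiments.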
# TP53RK = target: T2, TP53RK (UniProt Q96S44)
# T2 sequence (whole entry): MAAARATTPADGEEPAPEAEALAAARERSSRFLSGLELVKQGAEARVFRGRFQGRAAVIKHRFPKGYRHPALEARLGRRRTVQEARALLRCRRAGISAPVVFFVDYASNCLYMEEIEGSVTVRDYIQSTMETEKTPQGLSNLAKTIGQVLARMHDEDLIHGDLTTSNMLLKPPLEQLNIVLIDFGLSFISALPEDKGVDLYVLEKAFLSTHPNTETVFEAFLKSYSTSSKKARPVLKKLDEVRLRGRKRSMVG
# Summary of the method: as §1
# [1] = target: T3, UniProt Q96BZ9 and related entries
# T3 sequence (whole entry): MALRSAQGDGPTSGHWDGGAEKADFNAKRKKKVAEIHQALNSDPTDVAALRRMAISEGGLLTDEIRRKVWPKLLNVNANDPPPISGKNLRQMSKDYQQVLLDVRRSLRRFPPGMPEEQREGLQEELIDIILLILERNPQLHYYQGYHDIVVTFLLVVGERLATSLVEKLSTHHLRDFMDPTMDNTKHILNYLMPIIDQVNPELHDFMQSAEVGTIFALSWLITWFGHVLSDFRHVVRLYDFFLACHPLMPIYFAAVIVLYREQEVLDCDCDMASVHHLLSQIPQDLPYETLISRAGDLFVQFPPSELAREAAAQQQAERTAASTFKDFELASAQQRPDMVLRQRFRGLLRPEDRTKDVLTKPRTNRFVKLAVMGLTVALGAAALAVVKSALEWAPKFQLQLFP
# Summary of the method: as §1
# [2] = target: T4, UniProt Q96F46 and related entries
# T4 sequence (whole entry): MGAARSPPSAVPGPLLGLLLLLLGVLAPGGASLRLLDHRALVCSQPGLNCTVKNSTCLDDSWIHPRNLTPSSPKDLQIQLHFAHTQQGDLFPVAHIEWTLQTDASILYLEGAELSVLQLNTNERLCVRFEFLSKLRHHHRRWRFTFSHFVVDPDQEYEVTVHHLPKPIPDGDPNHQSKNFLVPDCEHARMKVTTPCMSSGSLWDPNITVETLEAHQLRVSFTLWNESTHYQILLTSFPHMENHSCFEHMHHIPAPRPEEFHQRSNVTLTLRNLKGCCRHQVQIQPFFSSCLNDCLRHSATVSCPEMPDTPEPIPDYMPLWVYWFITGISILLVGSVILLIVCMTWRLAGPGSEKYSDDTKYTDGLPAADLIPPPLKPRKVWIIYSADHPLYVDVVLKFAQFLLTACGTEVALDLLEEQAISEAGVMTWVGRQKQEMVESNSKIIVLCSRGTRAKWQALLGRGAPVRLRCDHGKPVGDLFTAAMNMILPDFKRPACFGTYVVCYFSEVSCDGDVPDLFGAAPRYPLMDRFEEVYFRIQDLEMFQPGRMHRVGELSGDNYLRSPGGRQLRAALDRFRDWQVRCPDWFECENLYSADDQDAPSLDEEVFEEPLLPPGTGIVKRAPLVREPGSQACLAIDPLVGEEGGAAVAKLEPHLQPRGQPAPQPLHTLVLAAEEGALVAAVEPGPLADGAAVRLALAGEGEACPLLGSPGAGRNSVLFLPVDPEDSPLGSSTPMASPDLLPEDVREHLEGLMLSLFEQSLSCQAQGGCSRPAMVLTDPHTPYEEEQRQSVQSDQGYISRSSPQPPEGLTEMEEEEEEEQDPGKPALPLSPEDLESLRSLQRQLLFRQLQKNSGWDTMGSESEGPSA
# Summary of the method: as §1
# [3] = target: T5, UniProt Q96FC9 and related entries
# T5 sequence (whole entry): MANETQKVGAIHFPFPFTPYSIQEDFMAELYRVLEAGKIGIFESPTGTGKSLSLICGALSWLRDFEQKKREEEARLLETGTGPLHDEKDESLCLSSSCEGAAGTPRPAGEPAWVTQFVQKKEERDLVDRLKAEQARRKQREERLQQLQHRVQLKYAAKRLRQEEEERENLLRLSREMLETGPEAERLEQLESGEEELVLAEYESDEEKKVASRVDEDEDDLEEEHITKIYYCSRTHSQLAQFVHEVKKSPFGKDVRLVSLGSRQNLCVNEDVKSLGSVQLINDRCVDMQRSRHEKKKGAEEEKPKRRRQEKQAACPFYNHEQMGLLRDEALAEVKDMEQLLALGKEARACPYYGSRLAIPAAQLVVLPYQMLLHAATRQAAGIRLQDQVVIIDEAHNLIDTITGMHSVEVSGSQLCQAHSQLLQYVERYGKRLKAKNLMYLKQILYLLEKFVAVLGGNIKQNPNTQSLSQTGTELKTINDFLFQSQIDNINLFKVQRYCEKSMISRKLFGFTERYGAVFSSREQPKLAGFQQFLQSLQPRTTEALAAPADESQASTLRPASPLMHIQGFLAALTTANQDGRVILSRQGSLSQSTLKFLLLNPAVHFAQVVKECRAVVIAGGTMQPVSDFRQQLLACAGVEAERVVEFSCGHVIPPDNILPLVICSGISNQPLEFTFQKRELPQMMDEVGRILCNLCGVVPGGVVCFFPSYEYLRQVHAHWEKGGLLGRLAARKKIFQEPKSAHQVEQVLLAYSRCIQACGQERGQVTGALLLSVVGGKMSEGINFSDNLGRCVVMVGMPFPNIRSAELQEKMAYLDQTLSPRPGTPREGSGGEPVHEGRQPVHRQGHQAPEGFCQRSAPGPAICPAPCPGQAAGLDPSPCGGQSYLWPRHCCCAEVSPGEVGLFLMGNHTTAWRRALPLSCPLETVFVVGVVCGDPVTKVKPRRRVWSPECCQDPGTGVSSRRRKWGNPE
# Summary of the method: as §1
smiles,measurement,setting,value
Nc1ncnc2c1ncn2[C@@H]1O[C@H](COP(=O)(O)OP(=O)(O)OP(=O)(O)O)[C@@H](O)[C@H]1O [adenosine triphosphate],NP40-soluble protein abundance,STRBP; concentration: 1mM,1.01 ± 0.044
same,NP40-soluble protein abundance,STRBP; concentration: 2mM,1.05 ± 0.066
same,NP40-soluble protein abundance,STRBP; concentration: 4mM,1.08 ± 0.058
same,NP40-soluble protein abundance,STRBP; concentration: 6mM,1.06 ± 0.023
same,NP40-soluble protein abundance,STRBP; concentration: 8mM,1.16 ± 0.09
same,NP40-soluble protein abundance,STRBP; concentration: 10mM,1.24 ± 0.1
same,NP40-soluble protein abundance,TP53RK; concentration: 1mM,0.9403 ± 0.009
same,NP40-soluble protein abundance,TP53RK; concentration: 2mM,0.9552 ± 0.0089
same,NP40-soluble protein abundance,TP53RK; concentration: 4mM,0.903 ± 0.036
same,NP40-soluble protein abundance,TP53RK; concentration: 6mM,0.921 ± 0.057
same,NP40-soluble protein abundance,TP53RK; concentration: 8mM,0.9386 ± 0.0064
same,NP40-soluble protein abundance,TP53RK; concentration: 10mM,0.911 ± 0.014
same,NP40-soluble protein abundance,[1]; concentration: 1mM,0.982 ± 0.022
same,NP40-soluble protein abundance,[1]; concentration: 2mM,0.941 ± 0.1
same,NP40-soluble protein abundance,[1]; concentration: 4mM,0.937 ± 0.15
same,NP40-soluble protein abundance,[1]; concentration: 6mM,1 ± 0.08
same,NP40-soluble protein abundance,[1]; concentration: 8mM,0.939 ± 0.065
same,NP40-soluble protein abundance,[1]; concentration: 10mM,0.944 ± 0.091
same,NP40-soluble protein abundance,[2]; concentration: 1mM,0.934 ± 0.073
same,NP40-soluble protein abundance,[2]; concentration: 2mM,0.969 ± 0.043
same,NP40-soluble protein abundance,[2]; concentration: 4mM,0.974 ± 0.078
same,NP40-soluble protein abundance,[2]; concentration: 6mM,0.9 ± 0.035
same,NP40-soluble protein abundance,[2]; concentration: 8mM,0.964 ± 0.068
same,NP40-soluble protein abundance,[2]; concentration: 10mM,0.966 ± 0.03
same,NP40-soluble protein abundance,[3]; concentration: 1mM,1.08 ± 0.11
same,NP40-soluble protein abundance,[3]; concentration: 2mM,1.01 ± 0.088
same,NP40-soluble protein abundance,[3]; concentration: 4mM,1.1 ± 0.022
same,NP40-soluble protein abundance,[3]; concentration: 6mM,0.998 ± 0.076
same,NP40-soluble protein abundance,[3]; concentration: 8mM,1.03 ± 0.06
same,NP40-soluble protein abundance,[3]; concentration: 10mM,0.988 ± 0.086

# Shown tab-delimited: entries from further up
smiles	measurement	setting	value
Nc1ncnc2c1ncn2[C@@H]1O[C@H](COP(=O)(O)OP(=O)(O)OP(=O)(O)O)[C@@H](O)[C@H]1O [adenosine triphosphate]	NP40-soluble protein abundance	TP53RK; concentration: 6mM	0.921 ± 0.057
same	NP40-soluble protein abundance	TP53RK; concentration: 8mM	0.9386 ± 0.0064
same	NP40-soluble protein abundance	TP53RK; concentration: 10mM	0.911 ± 0.014
same	NP40-soluble protein abundance	[1]; concentration: 1mM	0.982 ± 0.022
same	NP40-soluble protein abundance	[1]; concentration: 2mM	0.941 ± 0.1
same	NP40-soluble protein abundance	[1]; concentration: 4mM	0.937 ± 0.15
same	NP40-soluble protein abundance	[1]; concentration: 6mM	1 ± 0.08
same	NP40-soluble protein abundance	[1]; concentration: 8mM	0.939 ± 0.065
same	NP40-soluble protein abundance	[1]; concentration: 10mM	0.944 ± 0.091
